Laboratory results: PubChem BioAssay AID1259254 (NCATS, 2017)

- Test: 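Genome-wide screen for genes that prevent DNA re-replication in cancer cells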 (primary screen)
- System: human HCT116 colorectal cancer cells
- Reagent: single siRNA against human genes
- Duration: 3 days
- Measured: 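Nuclei stained with Hoechst and imaged; cell-cycle phase assigned by DNA content; G2 share scaled per plate, non-targeting siRNA 0%, GMNN siRNA 100%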
- Direction: G2 robust z-score and G2 cells, % of GMNN control: higher = more G2 cells, more excess DNA replication
- Hit rule: 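Active siRNAs have a G2 robust z of 5 or more median absolute deviations over the median, which in these data means about 38% or higher of GMNN control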
In all, the deposit lists about 59,000 reagents; below is a random part of them. About 1,550 of them (2.6%) were called active. 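G2 share is only a proxy for re-replication; each gene was hit by three separate siRNAs, and active genes were retested.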 The numbers tell different reagents against one gene apart. Further read-outs or replicates are left out here. Reagent sequences are not shown. Not given: the amount of reagent.

target	siRNA no.	G2 robust z-score	G2 cells, % of GMNN control	call
SIRPB1 (signal regulatory protein beta 1)	1	-0.665	-1.71	inactive
SIRPB1 (signal regulatory protein beta 1)	2	-0.43	-0.0559	inactive
SIRPB1 (signal regulatory protein beta 1)	3	3.08	24.6	inactive
TIMM17B (translocase of inner mitochondrial membrane 17B)	1	-0.0966	2.29	inactive
TIMM17B (translocase of inner mitochondrial membrane 17B)	2	-0.101	2.26	inactive
TIMM17B (translocase of inner mitochondrial membrane 17B)	3	0.618	7.32	inactive
F10 (coagulation factor X)	1	5.37	40.8	active
F10 (coagulation factor X)	2	-0.222	1.41	inactive
F10 (coagulation factor X)	3	-0.819	-2.8	inactive
ACTL6A (actin like 6A)	1	8.87	65.4	active
ACTL6A (actin like 6A)	2	1.07	10.5	inactive
ACTL6A (actin like 6A)	3	0.256	4.77	inactive
DUS1L (dihydrouridine synthase 1 like)	1	1.51	13.6	inactive
DUS1L (dihydrouridine synthase 1 like)	2	1.53	13.7	inactive
DUS1L (dihydrouridine synthase 1 like)	3	2.29	19.1	inactive
TMEM105 (TMEM105 long non-coding RNA)	1	-0.348	0.517	inactive
TMEM105 (TMEM105 long non-coding RNA)	2	2.19	18.4	inactive
TMEM105 (TMEM105 long non-coding RNA)	3	1.22	11.6	inactive
ATP6AP2 (ATPase H+ transporting accessory protein 2)	1	-0.9	-3.37	inactive
ATP6AP2 (ATPase H+ transporting accessory protein 2)	2	-0.886	-3.27	inactive
ATP6AP2 (ATPase H+ transporting accessory protein 2)	3	-0.804	-2.69	inactive
VPS13A (vacuolar protein sorting 13 homolog A)	1	2.39	19.8	inactive
VPS13A (vacuolar protein sorting 13 homolog A)	2	-0.849	-3.01	inactive
VPS13A (vacuolar protein sorting 13 homolog A)	3	0.019	3.1	inactive
CLIP4 (CAP-Gly domain containing linker protein family member 4)	1	-0.0688	2.48	inactive
CLIP4 (CAP-Gly domain containing linker protein family member 4)	2	-0.102	2.25	inactive
CLIP4 (CAP-Gly domain containing linker protein family member 4)	3	-0.255	1.17	inactive
RORB (RAR related orphan receptor B)	1	-1.35	-6.53	inactive
RORB (RAR related orphan receptor B)	2	-1.24	-5.78	inactive
RORB (RAR related orphan receptor B)	3	2	17.1	inactive
LINC01249 (long independently transcribed non-coding RNA 1249)	1	1.82	15.7	inactive
LINC01249 (long independently transcribed non-coding RNA 1249)	2	0.345	5.39	inactive
LINC01249 (long independently transcribed non-coding RNA 1249)	3	0.693	7.84	inactive
SIX3 (SIX homeobox 3)	1	3.74	29.3	inactive
SIX3 (SIX homeobox 3)	2	-1.18	-5.34	inactive
SIX3 (SIX homeobox 3)	3	6.7	50.1	active
EIF4EBP2	1	2.77	22.5	inactive
EIF4EBP2	2	0.528	6.68	inactive
EIF4EBP2	3	-0.514	-0.648	inactive
ZBTB47 (zinc finger and BTB domain containing 47)	1	-0.749	-2.3	inactive
ZBTB47 (zinc finger and BTB domain containing 47)	2	2.14	18	inactive
ZBTB47 (zinc finger and BTB domain containing 47)	3	-0.935	-3.61	inactive
FCN1 (ficolin 1)	1	-0.53	-0.759	inactive
FCN1 (ficolin 1)	2	-0.463	-0.291	inactive
FCN1 (ficolin 1)	3	-0.783	-2.54	inactive
LINC01168 (long independently transcribed non-coding RNA 1168)	1	1.28	12	inactive
LINC01168 (long independently transcribed non-coding RNA 1168)	2	0.366	5.54	inactive
LINC01168 (long independently transcribed non-coding RNA 1168)	3	-0.462	-0.285	inactive
SHD (Src homology 2 domain containing transforming protein D)	1	-0.994	-4.03	inactive
SHD (Src homology 2 domain containing transforming protein D)	2	0.642	7.49	inactive
SHD (Src homology 2 domain containing transforming protein D)	3	1.84	15.9	inactive
ZNF414 (zinc finger protein 414)	1	-0.456	-0.24	inactive
ZNF414 (zinc finger protein 414)	2	-0.818	-2.79	inactive
ZNF414 (zinc finger protein 414)	3	-0.553	-0.923	inactive

Reagents listed above marked active, once more:
target	siRNA no.	G2 robust z-score	G2 cells, % of GMNN control	call
F10 (coagulation factor X)	1	5.37	40.8	active
ACTL6A (actin like 6A)	1	8.87	65.4	active
SIX3 (SIX homeobox 3)	3	6.7	50.1	active

Next entries:
target	siRNA no.	G2 robust z-score	G2 cells, % of GMNN control	call
RABEP1 (rabaptin, RAB GTPase binding effector protein 1)	1	4.13	32.1	inactive
RABEP1 (rabaptin, RAB GTPase binding effector protein 1)	2	0.374	5.6	inactive
RABEP1 (rabaptin, RAB GTPase binding effector protein 1)	3	-0.344	0.549	inactive
CSNK1G3 (casein kinase 1 gamma 3)	1	-1.06	-4.46	inactive
CSNK1G3 (casein kinase 1 gamma 3)	2	-1.08	-4.63	inactive
CSNK1G3 (casein kinase 1 gamma 3)	3	-0.653	-1.63	inactive
IL27 (interleukin 27)	1	-0.43	-0.0564	inactive
IL27 (interleukin 27)	2	0.753	8.26	inactive
IL27 (interleukin 27)	3	1.36	12.5	inactive
RNASEL (ribonuclease L)	1	0.159	4.08	inactive
RNASEL (ribonuclease L)	2	-0.806	-2.71	inactive
RNASEL (ribonuclease L)	3	-1.48	-7.41	inactive
DTNBP1 (dystrobrevin binding protein 1)	1	-1.08	-4.63	inactive
DTNBP1 (dystrobrevin binding protein 1)	2	0.0737	3.49	inactive
DTNBP1 (dystrobrevin binding protein 1)	3	8.34	61.6	active
CLXN (calaxin)	1	0.753	8.26	inactive
CLXN (calaxin)	2	0.0298	3.18	inactive
CLXN (calaxin)	3	0.645	7.5	inactive
TTYH2 (tweety family member 2)	1	0.224	4.54	inactive
TTYH2 (tweety family member 2)	2	0.0935	3.63	inactive
TTYH2 (tweety family member 2)	3	0.783	8.48	inactive
SPRR3 (small proline rich protein 3)	1	-0.955	-3.75	inactive
SPRR3 (small proline rich protein 3)	2	-0.381	0.284	inactive
SPRR3 (small proline rich protein 3)	3	0.672	7.7	inactive
TRIM48 (tripartite motif containing 48)	1	-0.604	-1.28	inactive
TRIM48 (tripartite motif containing 48)	2	0.0331	3.2	inactive
TRIM48 (tripartite motif containing 48)	3	0.529	6.69	inactive
PAK2 (p21 (RAC1) activated kinase 2)	1	-0.519	-0.682	inactive
PAK2 (p21 (RAC1) activated kinase 2)	2	-1.11	-4.81	inactive
PAK2 (p21 (RAC1) activated kinase 2)	3	-0.262	1.12	inactive
ANKRD22 (ankyrin repeat domain 22)	1	2.31	19.3	inactive
ANKRD22 (ankyrin repeat domain 22)	2	0.117	3.79	inactive
ANKRD22 (ankyrin repeat domain 22)	3	-0.108	2.21	inactive
